PubChem BioAssay AID504774 | Drosophila RNAi Screening Center | 2011
Assay: 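Fly genes whose loss alters survival after alkylation damage to DNA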 (primary screen). Cell system: Drosophila Kc167 cells. Knock-down reagent: long dsRNA against Drosophila genes, about 0.25 µg dsRNA per well. Time to read-out: about 6 days: 3 days knock-down, then 3 days with or without MMS. Treatment: methyl methanesulphonate 0.004% (w/v) for 3 days after knock-down. Detection: 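Viability in wells given MMS, read as ATP luminescence, normalised by quantiles plate by plate and averaged across replicates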. Reading the numbers: mean viability with MMS and viability with MMS: higher = more surviving cells after MMS.
In all, the deposit lists about 23,000 reagents; shown is an unselected part of those that have a named target and a result. 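Values are quantile-normalised luminescence on an arbitrary scale; higher means more cells surviving MMS.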 The numbers tell different reagents against one gene apart. Names joined by + are all predicted targets of the reagent. Further read-outs or replicates are left out here. Reagent sequences are not shown.

CycE #1: mean viability with MMS = 3.03e6; viability with MMS, replicate 1 = 3.28e6
CycE #2: mean viability with MMS = 3.12e6; viability with MMS, replicate 1 = 3.61e6
CG6685: mean viability with MMS = 3.71e6; viability with MMS, replicate 1 = 4.07e6
CG30403: mean viability with MMS = 1.87e6; viability with MMS, replicate 1 = 4.04e6
CG12682: mean viability with MMS = 3.55e6; viability with MMS, replicate 1 = 4.09e6
CG8888 #1: mean viability with MMS = 3.58e6; viability with MMS, replicate 1 = 4.15e6
CG8888 #2: mean viability with MMS = 3.47e6; viability with MMS, replicate 1 = 3.80e6
polybromo: mean viability with MMS = 3.57e6; viability with MMS, replicate 1 = 4.07e6
Mpv17: mean viability with MMS = 3.66e6; viability with MMS, replicate 1 = 4.11e6
CG12814 #1: mean viability with MMS = 3.70e6; viability with MMS, replicate 1 = 4.05e6
CG12814 #2: mean viability with MMS = 3.58e6; viability with MMS, replicate 1 = 3.96e6
Cyt-c1: mean viability with MMS = 3.48e6; viability with MMS, replicate 1 = 3.97e6
CG18549: mean viability with MMS = 3.47e6; viability with MMS, replicate 1 = 3.92e6
CG8646: mean viability with MMS = 3.40e6; viability with MMS, replicate 1 = 3.69e6
Inx7: mean viability with MMS = 3.67e6; viability with MMS, replicate 1 = 4.21e6
Elp6: mean viability with MMS = 3.31e6; viability with MMS, replicate 1 = 3.76e6
Hug: mean viability with MMS = 3.55e6; viability with MMS, replicate 1 = 4.03e6
CG8490: mean viability with MMS = 3.54e6; viability with MMS, replicate 1 = 3.85e6
CG8997: mean viability with MMS = 3.52e6; viability with MMS, replicate 1 = 4.04e6
CG32202: mean viability with MMS = 3.58e6; viability with MMS, replicate 1 = 4.02e6
knk: mean viability with MMS = 3.59e6; viability with MMS, replicate 1 = 4.09e6
gkt: mean viability with MMS = 3.64e6; viability with MMS, replicate 1 = 4.08e6
Pldn: mean viability with MMS = 3.60e6; viability with MMS, replicate 1 = 4.18e6
CG12910: mean viability with MMS = 3.50e6; viability with MMS, replicate 1 = 4.00e6
CG12848: mean viability with MMS = 3.49e6; viability with MMS, replicate 1 = 3.96e6
THADA: mean viability with MMS = 3.61e6; viability with MMS, replicate 1 = 4.09e6
CG11444: mean viability with MMS = 3.52e6; viability with MMS, replicate 1 = 3.96e6
CG16972: mean viability with MMS = 3.47e6; viability with MMS, replicate 1 = 4.00e6
Taf3: mean viability with MMS = 3.16e6; viability with MMS, replicate 1 = 3.74e6
CG10185: mean viability with MMS = 3.64e6; viability with MMS, replicate 1 = 4.14e6
Rrp5: mean viability with MMS = 3.54e6; viability with MMS, replicate 1 = 3.99e6
Fbw5: mean viability with MMS = 3.53e6; viability with MMS, replicate 1 = 4.16e6
CG4872: mean viability with MMS = 3.91e6; viability with MMS, replicate 1 = 4.41e6
CG12935 + Nop10: mean viability with MMS = 3.46e6; viability with MMS, replicate 1 = 3.86e6
COX5B: mean viability with MMS = 3.36e6; viability with MMS, replicate 1 = 3.64e6
RpL34b: mean viability with MMS = 3.46e6; viability with MMS, replicate 1 = 3.93e6
CG10943: mean viability with MMS = 3.66e6; viability with MMS, replicate 1 = 4.24e6
lmgA + lmgB: mean viability with MMS = 3.38e6; viability with MMS, replicate 1 = 3.80e6
IP3K1 + hpRNA:CR18854: mean viability with MMS = 3.38e6; viability with MMS, replicate 1 = 3.87e6
Cul4: mean viability with MMS = 3.35e6; viability with MMS, replicate 1 = 3.81e6
Amy-d: mean viability with MMS = 3.55e6; viability with MMS, replicate 1 = 3.99e6
CG6793: mean viability with MMS = 3.67e6; viability with MMS, replicate 1 = 4.04e6
NdufA3: mean viability with MMS = 3.64e6; viability with MMS, replicate 1 = 4.00e6
CG3062: mean viability with MMS = 3.75e6; viability with MMS, replicate 1 = 4.22e6
dpr16 #1: mean viability with MMS = 3.50e6; viability with MMS, replicate 1 = 3.86e6
dpr16 #2: mean viability with MMS = 2.11e6; viability with MMS, replicate 1 = 4.15e6

Ordered by “viability with MMS, replicate 1” (ascending): 6 of the entries above.
Cul4: mean viability with MMS = 3.35e6; viability with MMS, replicate 1 = 3.81e6
dpr16 #1: mean viability with MMS = 3.50e6; viability with MMS, replicate 1 = 3.86e6
Amy-d: mean viability with MMS = 3.55e6; viability with MMS, replicate 1 = 3.99e6
NdufA3: mean viability with MMS = 3.64e6; viability with MMS, replicate 1 = 4.00e6
CG6793: mean viability with MMS = 3.67e6; viability with MMS, replicate 1 = 4.04e6
CG3062: mean viability with MMS = 3.75e6; viability with MMS, replicate 1 = 4.22e6
